PubChem BioAssay AID1224826, NIAID | 2016
The whole screen tested about 17,000 reagents; this is a random part of them. About 1,110 of all reagents (6.6%) were called active. 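Active means lowered or raised reporter signal; replicate intensities are raw and not normalised per plate.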 Not all columns of the deposit are shown.

Screen: 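Regulators of Tlr4 signalling leading to Tnf-alpha expression in macrophages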 (primary screen)
Cells: RAW264.7 G9 macrophages from mouse bearing reporters for p65 (GFP) and the Tnf promoter (mCherry)
Reagent: siRNA pool against mouse genes, 100 nM
Timing: 16 h of LPS stimulation, after 2 days of siRNA transfection
Challenge: bacterial lipopolysaccharide (Salmonella minnesota R595), 10 ng/ml
Measurement: 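Nuclear mCherry signal of the Tnf promoter reporter measured by imaging after background removal, scaled to each plate median and turned into robust z-scores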
Scale: Tnf reporter robust z-score: higher = stronger Tnf promoter reporter signal after LPS
Rule for the call: 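Called active when robust z-score is at most -1.3, matching the median of the Tlr4 knock-down control, or over 3; control wells and wells with under 50 cells never active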
Meaning of the calls: active = Tnf reporter clearly lowered or raised; inactive = no clear change in Tnf reporter

Atg16l1: Tnf reporter robust z-score = 1.14; fewer than 50 cells in well = enough cells in well; outcome = inactive
Ric1: Tnf reporter robust z-score = 0.15; fewer than 50 cells in well = enough cells in well; outcome = inactive
Nxn: Tnf reporter robust z-score = -0.38; fewer than 50 cells in well = enough cells in well; outcome = inactive
Atg7: Tnf reporter robust z-score = 1.02; fewer than 50 cells in well = enough cells in well; outcome = inactive
Nherf4: Tnf reporter robust z-score = 1.51; fewer than 50 cells in well = enough cells in well; outcome = inactive
Tmed2: Tnf reporter robust z-score = 0.7; fewer than 50 cells in well = enough cells in well; outcome = inactive
Fam133b: Tnf reporter robust z-score = 0.64; fewer than 50 cells in well = enough cells in well; outcome = inactive
Arhgef28: Tnf reporter robust z-score = 0.27; fewer than 50 cells in well = enough cells in well; outcome = inactive
Efna3: Tnf reporter robust z-score = 0.49; fewer than 50 cells in well = enough cells in well; outcome = inactive
Pcdhgc3: Tnf reporter robust z-score = 1.22; fewer than 50 cells in well = enough cells in well; outcome = inactive
Acaca: Tnf reporter robust z-score = -1.85; fewer than 50 cells in well = enough cells in well; outcome = active
Fbxl2: Tnf reporter robust z-score = 0.46; fewer than 50 cells in well = enough cells in well; outcome = inactive
Rdx: Tnf reporter robust z-score = -0.19; fewer than 50 cells in well = enough cells in well; outcome = inactive
Il27: Tnf reporter robust z-score = -1.07; fewer than 50 cells in well = enough cells in well; outcome = inactive
